Experimental data: PubChem BioAssay AID1671195 (Yale University, 2021)

Test: 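Regulators of LDL receptor activity judged by labelled LDL uptake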 (primary screen)
Cells: human Huh7 hepatoma cells
Reagent: siRNA pool against human genes, 18 nM
Duration: about 2 to 2.5 days of knockdown, then 8 h LDL uptake
Challenge: DiI-labelled LDL at 30 µg/ml for 8 h, in lipoprotein-deficient serum medium
Detection: 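Fluorescent LDL signal imaged in cells, scaled to the plate median, robust z-score for each replicate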
Direction: robust z-score: higher = more LDL uptake after knockdown
Active means: 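Active when two or more replicates show a robust z-score above 2 or below -2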
In all, the deposit lists about 22,000 reagents; this is an unselected part. Over the whole deposit, about 1,510 (6.9%) are marked active. 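Active includes knockdowns raising or lowering LDL uptake; positive z-scores mean more uptake, negative mean less.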

With ZNF318 (GeneID 24149), how do the results read?
robust z-score, replicate 1: 0.601; robust z-score, replicate 2: 1.49; robust z-score, replicate 3: 2.29; Call: inactive

What is on record for LOC339553 (retired record) (GeneID 339553)?
robust z-score, replicate 1: -0.179; robust z-score, replicate 2: 0.266; robust z-score, replicate 3: 0.246; Call: inactive

Which result is listed for SCML4 (GeneID 256380)?
robust z-score, replicate 1: -0.0596; robust z-score, replicate 2: 1.33; robust z-score, replicate 3: -0.122; Call: inactive

How did the screen score CCDC6 (GeneID 8030)?
robust z-score, replicate 1: -0.814; robust z-score, replicate 2: -0.768; robust z-score, replicate 3: -1.3; Call: inactive

For OR10H5 (GeneID 284433), what does the deposit list?
robust z-score, replicate 1: -0.73; robust z-score, replicate 2: -0.712; robust z-score, replicate 3: -0.382; Call: inactive

With VPS37B (GeneID 79720), what was measured?
robust z-score, replicate 1: 2.07; robust z-score, replicate 2: 1.46; robust z-score, replicate 3: 1.43; Call: inactive

What is on record for CD274 (GeneID 29126)?
robust z-score, replicate 1: 2.11; robust z-score, replicate 2: 1.66; robust z-score, replicate 3: 0.842; Call: inactive

For CTRB1 (GeneID 1504), what was measured?
robust z-score, replicate 1: 0.399; robust z-score, replicate 2: 0.0995; robust z-score, replicate 3: 0.355; Call: inactive

What did the screen give for DUOXA2 (GeneID 405753)?
robust z-score, replicate 1: -0.57; robust z-score, replicate 2: 0.0341; robust z-score, replicate 3: 0.449; Call: inactive

Which result is listed for ACOT9 (GeneID 23597)?
robust z-score, replicate 1: 1.1; robust z-score, replicate 2: 1.95; robust z-score, replicate 3: 1.42; Call: inactive

With AKAP8 (GeneID 10270), what was measured?
robust z-score, replicate 1: 1.24; robust z-score, replicate 2: 1.17; robust z-score, replicate 3: 0.59; Call: inactive

Which result is listed for NLRP1 (GeneID 22861)?
robust z-score, replicate 1: -0.716; robust z-score, replicate 2: -1.26; robust z-score, replicate 3: -0.543; Call: inactive
